The values below come from the supplement of paper PMC10060354, “Discovery of a small molecule ligand of FRS2 that inhibits invasion and tumor growth” (Cellular Oncology, 2022).

Sequences of proteins named here, by UniProt entry; tags and fusion partners are left off. A change or cut given only in a name is not applied to a line headed by its entry.
UniProt Q8IVD9: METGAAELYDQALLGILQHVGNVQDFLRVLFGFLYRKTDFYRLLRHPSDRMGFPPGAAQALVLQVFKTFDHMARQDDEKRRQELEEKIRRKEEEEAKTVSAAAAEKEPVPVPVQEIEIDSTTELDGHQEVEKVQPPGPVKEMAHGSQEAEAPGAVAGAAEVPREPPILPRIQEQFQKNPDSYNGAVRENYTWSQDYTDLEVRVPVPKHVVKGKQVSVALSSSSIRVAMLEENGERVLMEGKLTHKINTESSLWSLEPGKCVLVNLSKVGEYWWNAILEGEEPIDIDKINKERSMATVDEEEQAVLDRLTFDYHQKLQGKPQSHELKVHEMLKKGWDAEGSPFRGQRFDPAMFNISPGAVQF
UniProt P54105: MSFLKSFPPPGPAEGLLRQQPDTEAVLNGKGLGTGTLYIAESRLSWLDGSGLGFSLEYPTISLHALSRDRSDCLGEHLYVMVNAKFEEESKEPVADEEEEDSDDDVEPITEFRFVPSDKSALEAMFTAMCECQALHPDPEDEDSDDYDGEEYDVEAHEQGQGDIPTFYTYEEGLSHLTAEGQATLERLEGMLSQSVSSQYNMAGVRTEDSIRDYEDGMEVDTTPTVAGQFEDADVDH
UniProt Q9GZS1, whole entry: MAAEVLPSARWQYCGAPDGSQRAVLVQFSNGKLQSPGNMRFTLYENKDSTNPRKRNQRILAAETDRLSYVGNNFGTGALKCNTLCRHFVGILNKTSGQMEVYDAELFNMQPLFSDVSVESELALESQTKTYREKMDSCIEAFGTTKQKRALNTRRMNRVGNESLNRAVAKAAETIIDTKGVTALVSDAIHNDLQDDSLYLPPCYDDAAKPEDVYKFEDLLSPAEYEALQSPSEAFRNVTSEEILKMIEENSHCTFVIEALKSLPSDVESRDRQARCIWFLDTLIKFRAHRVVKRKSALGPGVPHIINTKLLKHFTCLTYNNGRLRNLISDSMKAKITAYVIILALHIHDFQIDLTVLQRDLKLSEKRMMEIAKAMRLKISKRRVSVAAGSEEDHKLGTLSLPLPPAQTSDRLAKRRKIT
UniProt Q9UNF0: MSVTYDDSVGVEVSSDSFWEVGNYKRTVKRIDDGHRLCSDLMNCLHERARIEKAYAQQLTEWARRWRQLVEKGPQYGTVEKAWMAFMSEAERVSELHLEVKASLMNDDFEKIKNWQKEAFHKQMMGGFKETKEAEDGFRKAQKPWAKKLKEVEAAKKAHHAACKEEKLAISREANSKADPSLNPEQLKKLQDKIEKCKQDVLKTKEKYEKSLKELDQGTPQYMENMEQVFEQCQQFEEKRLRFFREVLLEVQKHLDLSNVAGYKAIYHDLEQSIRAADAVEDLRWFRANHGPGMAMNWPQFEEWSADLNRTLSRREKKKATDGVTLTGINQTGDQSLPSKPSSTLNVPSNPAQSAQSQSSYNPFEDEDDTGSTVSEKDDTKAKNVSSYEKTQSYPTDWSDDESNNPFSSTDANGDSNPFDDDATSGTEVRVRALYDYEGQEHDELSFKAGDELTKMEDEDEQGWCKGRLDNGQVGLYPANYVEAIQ
UniProt P61457: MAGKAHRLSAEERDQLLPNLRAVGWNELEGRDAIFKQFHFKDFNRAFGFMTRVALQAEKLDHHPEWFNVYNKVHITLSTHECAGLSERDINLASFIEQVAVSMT
UniProt P10412, whole entry: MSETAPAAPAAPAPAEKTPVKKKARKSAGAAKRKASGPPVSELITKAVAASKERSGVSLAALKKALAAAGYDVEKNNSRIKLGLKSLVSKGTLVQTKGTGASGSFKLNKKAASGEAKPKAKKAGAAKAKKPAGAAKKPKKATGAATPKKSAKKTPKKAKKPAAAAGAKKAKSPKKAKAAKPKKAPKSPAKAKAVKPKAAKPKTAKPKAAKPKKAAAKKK
UniProt Q8N9B5, whole entry: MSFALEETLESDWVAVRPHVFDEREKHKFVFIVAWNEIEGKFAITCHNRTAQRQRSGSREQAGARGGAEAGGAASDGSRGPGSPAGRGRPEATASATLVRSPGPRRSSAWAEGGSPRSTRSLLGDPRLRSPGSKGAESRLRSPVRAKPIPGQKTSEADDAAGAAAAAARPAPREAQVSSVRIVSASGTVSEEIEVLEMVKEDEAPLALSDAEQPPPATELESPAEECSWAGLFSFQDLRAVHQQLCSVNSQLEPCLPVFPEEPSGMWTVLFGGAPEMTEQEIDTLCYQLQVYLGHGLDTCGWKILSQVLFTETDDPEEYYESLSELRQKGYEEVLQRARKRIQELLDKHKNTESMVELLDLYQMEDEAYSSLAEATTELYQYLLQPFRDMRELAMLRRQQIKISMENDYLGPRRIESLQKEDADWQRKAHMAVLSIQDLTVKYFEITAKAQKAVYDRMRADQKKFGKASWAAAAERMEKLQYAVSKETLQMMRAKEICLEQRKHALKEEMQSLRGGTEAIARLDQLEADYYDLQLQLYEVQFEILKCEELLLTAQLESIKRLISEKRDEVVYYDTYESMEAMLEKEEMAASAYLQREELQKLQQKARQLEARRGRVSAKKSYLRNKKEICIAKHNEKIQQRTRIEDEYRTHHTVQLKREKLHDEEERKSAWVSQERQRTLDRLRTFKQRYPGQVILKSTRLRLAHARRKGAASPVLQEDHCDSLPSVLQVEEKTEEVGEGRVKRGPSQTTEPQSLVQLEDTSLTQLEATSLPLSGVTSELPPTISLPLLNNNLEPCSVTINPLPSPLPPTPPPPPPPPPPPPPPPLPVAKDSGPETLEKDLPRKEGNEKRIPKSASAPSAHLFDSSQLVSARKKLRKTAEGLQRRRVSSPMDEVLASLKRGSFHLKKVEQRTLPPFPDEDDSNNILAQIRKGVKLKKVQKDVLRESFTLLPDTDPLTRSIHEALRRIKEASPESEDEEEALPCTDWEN
UniProt Q16533: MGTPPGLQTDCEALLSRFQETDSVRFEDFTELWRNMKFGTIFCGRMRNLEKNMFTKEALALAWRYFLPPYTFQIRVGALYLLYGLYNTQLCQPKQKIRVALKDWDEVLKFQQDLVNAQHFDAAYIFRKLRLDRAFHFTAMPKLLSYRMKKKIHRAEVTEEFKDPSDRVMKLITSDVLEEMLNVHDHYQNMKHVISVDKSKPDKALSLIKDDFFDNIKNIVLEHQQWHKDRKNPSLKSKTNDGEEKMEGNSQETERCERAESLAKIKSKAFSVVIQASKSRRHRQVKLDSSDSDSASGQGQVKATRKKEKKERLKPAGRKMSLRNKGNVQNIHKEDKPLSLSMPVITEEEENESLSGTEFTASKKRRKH
UniProt O60832: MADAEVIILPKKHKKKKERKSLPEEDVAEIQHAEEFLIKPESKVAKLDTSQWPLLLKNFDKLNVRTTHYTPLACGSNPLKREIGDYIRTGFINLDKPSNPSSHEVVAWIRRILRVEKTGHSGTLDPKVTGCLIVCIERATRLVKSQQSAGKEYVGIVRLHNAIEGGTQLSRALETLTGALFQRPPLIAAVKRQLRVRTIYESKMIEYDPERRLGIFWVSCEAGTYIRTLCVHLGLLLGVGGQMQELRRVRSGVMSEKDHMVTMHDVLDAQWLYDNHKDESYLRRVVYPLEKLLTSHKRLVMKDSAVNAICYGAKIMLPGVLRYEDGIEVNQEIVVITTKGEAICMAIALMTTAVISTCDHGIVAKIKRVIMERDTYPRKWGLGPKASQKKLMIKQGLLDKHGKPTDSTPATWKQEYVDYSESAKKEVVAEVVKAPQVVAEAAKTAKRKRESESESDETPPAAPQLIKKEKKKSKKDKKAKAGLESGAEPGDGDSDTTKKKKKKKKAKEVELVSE
UniProt Q8TE02: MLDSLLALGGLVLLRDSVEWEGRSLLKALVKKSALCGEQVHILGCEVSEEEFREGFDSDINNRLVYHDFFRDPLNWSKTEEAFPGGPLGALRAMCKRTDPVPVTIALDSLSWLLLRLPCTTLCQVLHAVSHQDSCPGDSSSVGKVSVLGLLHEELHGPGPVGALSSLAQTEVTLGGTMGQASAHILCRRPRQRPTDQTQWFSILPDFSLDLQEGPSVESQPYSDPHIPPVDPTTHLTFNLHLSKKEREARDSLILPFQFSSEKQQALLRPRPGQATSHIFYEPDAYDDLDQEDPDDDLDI
UniProt Q9H4H8: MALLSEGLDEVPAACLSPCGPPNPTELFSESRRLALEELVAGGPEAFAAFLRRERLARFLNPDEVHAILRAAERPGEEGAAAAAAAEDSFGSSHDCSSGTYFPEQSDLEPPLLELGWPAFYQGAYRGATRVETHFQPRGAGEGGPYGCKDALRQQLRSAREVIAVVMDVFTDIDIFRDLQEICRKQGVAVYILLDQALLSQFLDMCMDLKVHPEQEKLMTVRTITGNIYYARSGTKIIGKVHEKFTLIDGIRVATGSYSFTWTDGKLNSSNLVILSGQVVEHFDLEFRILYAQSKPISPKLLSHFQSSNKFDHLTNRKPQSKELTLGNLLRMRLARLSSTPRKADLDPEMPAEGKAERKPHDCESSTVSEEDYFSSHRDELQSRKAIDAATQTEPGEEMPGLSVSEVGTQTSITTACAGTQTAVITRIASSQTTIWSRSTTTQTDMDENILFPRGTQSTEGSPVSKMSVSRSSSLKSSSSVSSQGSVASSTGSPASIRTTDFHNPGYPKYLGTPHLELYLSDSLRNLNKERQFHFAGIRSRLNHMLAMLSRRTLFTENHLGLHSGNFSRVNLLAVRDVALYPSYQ
UniProt Q9NYA1, whole entry: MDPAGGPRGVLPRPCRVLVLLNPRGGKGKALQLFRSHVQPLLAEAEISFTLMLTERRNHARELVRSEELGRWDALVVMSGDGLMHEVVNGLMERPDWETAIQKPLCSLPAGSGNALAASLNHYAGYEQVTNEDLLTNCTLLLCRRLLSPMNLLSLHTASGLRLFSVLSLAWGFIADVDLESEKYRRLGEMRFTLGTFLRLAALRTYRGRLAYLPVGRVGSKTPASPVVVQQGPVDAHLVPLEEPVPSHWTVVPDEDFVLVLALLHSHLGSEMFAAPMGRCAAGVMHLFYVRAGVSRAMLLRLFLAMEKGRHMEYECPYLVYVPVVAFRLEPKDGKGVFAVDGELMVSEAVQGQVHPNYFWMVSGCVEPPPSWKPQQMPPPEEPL
UniProt Q9NRL2: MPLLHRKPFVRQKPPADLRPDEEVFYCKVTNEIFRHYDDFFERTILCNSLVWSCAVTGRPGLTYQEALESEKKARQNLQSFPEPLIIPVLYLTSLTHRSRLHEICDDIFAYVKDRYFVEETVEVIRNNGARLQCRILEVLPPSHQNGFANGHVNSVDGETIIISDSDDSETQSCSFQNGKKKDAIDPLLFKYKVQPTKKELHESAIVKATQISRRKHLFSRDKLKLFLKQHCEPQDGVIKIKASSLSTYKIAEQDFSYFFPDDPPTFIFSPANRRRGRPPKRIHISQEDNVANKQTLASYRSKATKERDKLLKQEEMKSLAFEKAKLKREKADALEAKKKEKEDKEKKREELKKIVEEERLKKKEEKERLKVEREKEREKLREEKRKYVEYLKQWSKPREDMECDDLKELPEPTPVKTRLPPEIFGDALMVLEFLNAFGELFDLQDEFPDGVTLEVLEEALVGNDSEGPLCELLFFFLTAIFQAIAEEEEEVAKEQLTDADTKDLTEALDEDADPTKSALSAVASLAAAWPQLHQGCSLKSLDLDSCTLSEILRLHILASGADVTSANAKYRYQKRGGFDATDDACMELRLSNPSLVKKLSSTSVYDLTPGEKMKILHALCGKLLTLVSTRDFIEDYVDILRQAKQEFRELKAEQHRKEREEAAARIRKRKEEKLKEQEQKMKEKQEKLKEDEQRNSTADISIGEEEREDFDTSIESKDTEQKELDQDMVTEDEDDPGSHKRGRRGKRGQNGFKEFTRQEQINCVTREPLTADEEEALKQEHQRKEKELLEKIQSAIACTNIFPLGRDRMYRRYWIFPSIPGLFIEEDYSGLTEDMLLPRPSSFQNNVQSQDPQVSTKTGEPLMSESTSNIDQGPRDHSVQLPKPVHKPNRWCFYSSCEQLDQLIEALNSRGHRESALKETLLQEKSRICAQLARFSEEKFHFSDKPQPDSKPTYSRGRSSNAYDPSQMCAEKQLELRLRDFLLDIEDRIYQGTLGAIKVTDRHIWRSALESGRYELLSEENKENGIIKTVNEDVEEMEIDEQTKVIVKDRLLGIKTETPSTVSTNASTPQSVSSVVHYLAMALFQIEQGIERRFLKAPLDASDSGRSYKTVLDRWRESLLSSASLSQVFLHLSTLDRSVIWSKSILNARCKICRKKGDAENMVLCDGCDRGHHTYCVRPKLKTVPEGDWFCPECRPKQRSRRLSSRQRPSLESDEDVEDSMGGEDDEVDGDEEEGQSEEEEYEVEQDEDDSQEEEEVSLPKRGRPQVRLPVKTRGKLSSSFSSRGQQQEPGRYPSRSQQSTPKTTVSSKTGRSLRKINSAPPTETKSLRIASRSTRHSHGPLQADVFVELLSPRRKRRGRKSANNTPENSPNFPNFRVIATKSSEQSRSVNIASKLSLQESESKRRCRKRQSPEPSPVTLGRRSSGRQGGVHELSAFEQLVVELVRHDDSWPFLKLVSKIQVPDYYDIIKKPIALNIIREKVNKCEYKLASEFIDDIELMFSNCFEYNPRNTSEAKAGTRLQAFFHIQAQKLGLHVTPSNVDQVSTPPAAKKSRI

Single values are uncertain, as repeats are few or missing.

Compound in this assay: [O-][N+](C(C1=C(C(O)=C2)NC(C(C=C3)=CC=C3Cl)C4C1C=CC4)=C2Cl)=O
Description: melting temperature shift (compound 7 minus DMSO); higher = compound stabilises the protein. The settings on record: 10 µM. The protocol: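 Thermal proteome profiling (TMT mass spectrometry) in intact DAOY medulloblastoma cells or DAOY lysates treated with 10 µM compound 7 or DMSO, heated at 10 temperatures from 40.5 to 73.8 °C for 3 min. Melting curves were fitted with the Bioconductor TPP package, and the melting point difference between compound and vehicle is reported per protein (single curve per condition).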

[1] abbreviates: system: DAOY cell lysate, treatment time: 20 min, 4 °C.
The mark [2] stands for this setting: system: intact DAOY cells, treatment time: 90 min, 37 °C.

NUDCD3 (UniProt Q8IVD9): the melting temperature shift by setting is: under setting [1], -0.72 °C; under setting [2], 0.191 °C.

Take UniProt Q86UA6: under setting [2], the melting temperature shift was -0.0633 °C.

CLNS1A (UniProt P54105): the melting temperature shift under setting [1] is 1.53 °C and the melting temperature shift under setting [2] worked out at 0.75 °C.

POLR1E (UniProt Q9GZS1): the melting temperature shift under setting [1] was -0.83 °C and the melting temperature shift under setting [2] is -1.97 °C.

In the case of UTP15 (UniProt Q8TED0), the melting temperature shift is, setting by setting: under setting [1], 1.25 °C; under setting [2], -0.469 °C.

As to PACSIN2 (UniProt Q9UNF0), the melting temperature shift reads like this: under setting [1], -1.49 °C; under setting [2], -0.271 °C.

As to VPS41 (UniProt P49754), the melting temperature shift reads like this: under setting [1], -1.98 °C; under setting [2], -0.0653 °C.

On to FAM98B (UniProt Q52LJ0), for which the melting temperature shift by setting is: under setting [1], -1.17 °C; under setting [2], -0.454 °C.

Take UniProt Q8NB78: under setting [1], the melting temperature shift was determined as 0.38 °C.

For the target UniProt Q9UPW6, under setting [1], the melting temperature shift was -0.336 °C.

In the case of PCBD1 (UniProt P61457), the melting temperature shift under setting [1] was found to be 1.16 °C.

In the case of MRPL53 (UniProt Q96EL3), the melting temperature shift under setting [1] turned out to be 1.26 °C and the melting temperature shift under setting [2] was 1.33 °C.

Consider MSH2 (UniProt P43246), for which the melting temperature shift runs as follows: under setting [1], -0.605 °C; under setting [2], -0.264 °C.

Consider CKAP2 (UniProt Q8WWK9), for which the melting temperature shift runs as follows: under setting [1], 0.0873 °C; under setting [2], 0.887 °C.

SPTBN1 (UniProt Q01082): the melting temperature shift is, setting by setting: under setting [1], 0.0574 °C; under setting [2], 0.748 °C.

With HIST1H1E (UniProt P10412), the melting temperature shift under setting [2] was -1.15 °C.

As to JMY (UniProt Q8N9B5), the melting temperature shift under setting [1] was -2.03 °C.

As for MCL1 (UniProt Q07820), the melting temperature shift reads like this: under setting [1], -0.521 °C; under setting [2], -2.2 °C.

Regarding DOCK1 (UniProt Q14185), the melting temperature shift under setting [1] was -2.09 °C.

In the case of UniProt Q8NFI4, under setting [2], the melting temperature shift is -0.016 °C.

SNAPC1 (UniProt Q16533): under setting [2], the melting temperature shift is -0.912 °C.

On to CPSF2 (UniProt Q9P2I0), for which the melting temperature shift under setting [1] stood at 0.0522 °C and the melting temperature shift under setting [2] was -0.31 °C.

For POFUT2 (UniProt Q9Y2G5), the melting temperature shift runs as follows: under setting [1], 0.279 °C; under setting [2], 0.736 °C.

Consider HSPA4L (UniProt O95757), for which the melting temperature shift under setting [1] is -0.318 °C and the melting temperature shift under setting [2] is -0.628 °C.

Take TRMT1L (UniProt Q7Z2T5): the melting temperature shift was 0.0989 °C under setting [1] and -0.994 °C under setting [2].

As to STX16 (UniProt O14662), the melting temperature shift by setting is: under setting [1], 0.786 °C; under setting [2], 0.428 °C.

With HNRNPDL (UniProt O14979), the melting temperature shift reads like this: under setting [1], 1.35 °C; under setting [2], 0.436 °C.

In the case of ZBTB10 (UniProt Q96DT7), under setting [1], the melting temperature shift was 0.841 °C.

For the target DKC1 (UniProt O60832), the melting temperature shift is, setting by setting: under setting [1], 0.657 °C; under setting [2], 0.732 °C.

Turning to ELP5 (UniProt Q8TE02), the melting temperature shift under setting [2] turned out to be 0.411 °C.

UniProt P20226: the melting temperature shift under setting [1] is -1.03 °C.

Consider FAM83D (UniProt Q9H4H8), for which, under setting [1], the melting temperature shift is -1.95 °C.

Turning to SPHK1 (UniProt Q9NYA1), the melting temperature shift under setting [2] came to 0.207 °C.

In the case of UniProt P51449, the melting temperature shift under setting [2] is -0.898 °C.

Regarding RPL21 (UniProt P46778), the melting temperature shift was 0.324 °C under setting [1] and -0.741 °C under setting [2].

As for BAZ1A (UniProt Q9NRL2), the melting temperature shift is, setting by setting: under setting [1], 0.661 °C; under setting [2], 0.66 °C.

Take SETD3 (UniProt Q86TU7): the melting temperature shift under setting [1] was -0.0165 °C and the melting temperature shift under setting [2] is -0.217 °C.

Consider WDR44 (UniProt Q5JSH3), for which the melting temperature shift runs as follows: under setting [1], -1.06 °C; under setting [2], -0.132 °C.
